Test results reported in PubChem BioAssay (EPA / NIEHS).
Several values for one entry are separate records, joined by “and”; a condition that tells them apart may be missing. Equal entries are not always repeated. This list was built around the results that the source calls inconclusive (neither active nor inactive); the mix of calls is not that of the screen. For some assays here: Potencies beside an inconclusive call are fits to weak or partial responses and may not hold up. Activity calls are given as the source filed them. The calls were made as follows: active = hit-call score of the fitted dose curve at least 0.9, where 1 is the maximum; inconclusive = response in the unintended direction; inactive = score below 0.9.

Sequences of proteins named here, by UniProt entry; tags and fusion partners are left off. A change or cut given only in a name is not applied to a line headed by its entry.
UniProt Q03181: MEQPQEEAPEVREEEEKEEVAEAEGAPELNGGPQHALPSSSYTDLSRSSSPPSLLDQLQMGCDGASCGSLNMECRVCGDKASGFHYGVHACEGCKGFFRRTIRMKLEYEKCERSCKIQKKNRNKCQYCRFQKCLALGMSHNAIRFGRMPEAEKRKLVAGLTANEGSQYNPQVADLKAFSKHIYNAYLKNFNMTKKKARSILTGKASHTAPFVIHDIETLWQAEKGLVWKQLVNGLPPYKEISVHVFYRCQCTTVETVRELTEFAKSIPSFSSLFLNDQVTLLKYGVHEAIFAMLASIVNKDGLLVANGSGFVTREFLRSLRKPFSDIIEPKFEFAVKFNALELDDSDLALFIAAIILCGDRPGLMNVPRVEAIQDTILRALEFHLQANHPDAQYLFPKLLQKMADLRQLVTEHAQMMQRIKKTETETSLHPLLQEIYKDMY
UniProt P37231: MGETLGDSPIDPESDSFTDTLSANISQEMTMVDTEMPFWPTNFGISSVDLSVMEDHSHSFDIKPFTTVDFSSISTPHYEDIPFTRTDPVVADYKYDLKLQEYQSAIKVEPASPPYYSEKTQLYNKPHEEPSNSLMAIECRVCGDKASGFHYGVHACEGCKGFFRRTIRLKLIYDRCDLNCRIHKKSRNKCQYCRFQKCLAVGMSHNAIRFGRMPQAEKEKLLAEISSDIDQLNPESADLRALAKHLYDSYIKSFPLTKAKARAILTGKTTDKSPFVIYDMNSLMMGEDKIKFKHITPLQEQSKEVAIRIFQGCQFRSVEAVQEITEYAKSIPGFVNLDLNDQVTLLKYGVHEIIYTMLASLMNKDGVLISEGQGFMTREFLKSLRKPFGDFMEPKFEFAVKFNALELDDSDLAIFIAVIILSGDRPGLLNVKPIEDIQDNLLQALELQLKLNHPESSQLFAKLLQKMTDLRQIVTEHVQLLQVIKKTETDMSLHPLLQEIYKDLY
UniProt P10827: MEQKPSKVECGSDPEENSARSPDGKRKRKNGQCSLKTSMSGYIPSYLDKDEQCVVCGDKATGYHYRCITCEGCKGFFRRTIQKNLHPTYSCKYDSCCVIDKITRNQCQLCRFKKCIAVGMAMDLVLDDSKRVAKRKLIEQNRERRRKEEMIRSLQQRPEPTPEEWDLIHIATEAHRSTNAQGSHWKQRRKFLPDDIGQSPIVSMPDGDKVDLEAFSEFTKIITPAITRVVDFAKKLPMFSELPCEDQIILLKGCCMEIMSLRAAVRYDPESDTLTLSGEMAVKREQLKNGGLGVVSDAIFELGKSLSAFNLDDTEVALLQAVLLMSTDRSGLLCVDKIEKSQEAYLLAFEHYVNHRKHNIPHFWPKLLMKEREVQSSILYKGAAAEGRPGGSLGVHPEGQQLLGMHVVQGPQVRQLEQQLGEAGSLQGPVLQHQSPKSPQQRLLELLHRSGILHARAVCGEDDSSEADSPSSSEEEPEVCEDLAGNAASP
UniProt P04637, whole entry, looked up: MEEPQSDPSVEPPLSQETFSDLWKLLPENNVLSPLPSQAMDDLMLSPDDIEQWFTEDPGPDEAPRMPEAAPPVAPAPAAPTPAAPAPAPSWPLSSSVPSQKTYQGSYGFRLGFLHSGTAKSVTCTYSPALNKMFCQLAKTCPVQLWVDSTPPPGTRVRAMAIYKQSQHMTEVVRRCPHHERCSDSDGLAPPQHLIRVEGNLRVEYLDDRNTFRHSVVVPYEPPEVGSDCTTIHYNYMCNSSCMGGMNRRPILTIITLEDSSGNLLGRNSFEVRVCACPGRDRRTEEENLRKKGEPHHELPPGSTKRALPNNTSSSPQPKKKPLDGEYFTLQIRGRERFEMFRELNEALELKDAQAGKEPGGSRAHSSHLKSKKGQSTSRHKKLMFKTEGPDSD
UniProt P19793: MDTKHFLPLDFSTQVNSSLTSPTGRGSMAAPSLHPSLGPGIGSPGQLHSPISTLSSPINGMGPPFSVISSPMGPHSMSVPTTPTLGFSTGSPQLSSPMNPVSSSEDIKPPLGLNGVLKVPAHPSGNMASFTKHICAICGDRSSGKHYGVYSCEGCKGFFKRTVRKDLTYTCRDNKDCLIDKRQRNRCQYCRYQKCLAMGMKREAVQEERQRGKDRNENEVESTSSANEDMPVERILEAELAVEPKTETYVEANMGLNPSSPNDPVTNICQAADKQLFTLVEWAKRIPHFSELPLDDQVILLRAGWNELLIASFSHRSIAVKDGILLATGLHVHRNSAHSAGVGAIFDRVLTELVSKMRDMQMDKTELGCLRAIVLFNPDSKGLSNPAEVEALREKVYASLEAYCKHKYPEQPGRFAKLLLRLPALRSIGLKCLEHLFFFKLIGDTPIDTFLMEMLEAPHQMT
UniProt P11473: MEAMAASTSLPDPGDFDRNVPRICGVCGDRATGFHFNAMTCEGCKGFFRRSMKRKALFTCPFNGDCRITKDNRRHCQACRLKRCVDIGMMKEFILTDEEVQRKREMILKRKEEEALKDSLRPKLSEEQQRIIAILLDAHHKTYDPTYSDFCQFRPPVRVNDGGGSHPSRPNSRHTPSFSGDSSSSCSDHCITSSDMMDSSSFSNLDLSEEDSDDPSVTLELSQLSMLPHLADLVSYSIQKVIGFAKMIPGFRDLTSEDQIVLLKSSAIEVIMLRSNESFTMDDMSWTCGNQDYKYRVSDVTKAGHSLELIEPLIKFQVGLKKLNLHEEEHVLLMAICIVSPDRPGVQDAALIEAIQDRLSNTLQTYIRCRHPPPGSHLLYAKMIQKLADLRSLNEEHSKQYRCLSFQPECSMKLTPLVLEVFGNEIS
UniProt P04406: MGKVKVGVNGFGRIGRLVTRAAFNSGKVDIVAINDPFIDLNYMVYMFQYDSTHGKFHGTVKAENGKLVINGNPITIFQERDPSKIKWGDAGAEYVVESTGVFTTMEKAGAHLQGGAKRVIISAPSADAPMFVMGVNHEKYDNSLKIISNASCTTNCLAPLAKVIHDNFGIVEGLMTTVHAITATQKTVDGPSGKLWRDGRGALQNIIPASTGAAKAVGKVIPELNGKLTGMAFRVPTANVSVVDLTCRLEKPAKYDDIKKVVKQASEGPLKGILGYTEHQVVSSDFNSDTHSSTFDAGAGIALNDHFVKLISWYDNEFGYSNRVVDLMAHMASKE

Tests used:
[1] = ATG_M_32_TRANS: Attagene TRANS-FACTORIAL HepG2 Assay for M32 Transcription Factor (Internal Marker) (AID 2282984); settings: HepG2 Attagene TRANS M32 internal marker reporter
Method in brief: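 Internal-marker readout from a multiplexed transcription reporter panel. HepG2 cells were transfected with GAL4-UAS reporter units, treated 24 hours, and reporter transcript levels determined by fluorescence after RT-PCR and capillary separation.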

[2] = molecular target: human Peroxisome Proliferator-activated Receptor delta (PPARd), PPARD (gene 5467) (UniProt Q03181); test: ATG_PPARd_TRANS: Attagene TRANS-FACTORIAL HepG2 Assay for human Peroxisome Proliferator-activated Receptor delta (PPARd) (AID 2283002)
Method in brief: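 Read-out: reporter mRNA induction, quantified by fluorescent RT-PCR products resolved by capillary electrophoresis. Human HepG2 liver cells carried transiently transfected Gal4-UAS reporter constructs with chimeric NR-Gal4 fusions. Cells were dosed for 24 h; DMSO served as baseline.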

[3] = molecular target: Peroxisome proliferator-activated receptor gamma (Homo sapiens) (UniProt P37231); test: ATG_PPARg_TRANS: Attagene TRANS-FACTORIAL HepG2 Assay for human Peroxisome Proliferator-activated Receptor-gamma (PPARg) (AID 2283007)
Method in brief: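 Endpoint reflects upward reporter mRNA change versus DMSO controls. Setup: transiently transfected HepG2, GAL4-UAS reporters driven by chimeric NR-Gal4, 24 h incubation, RT-PCR with capillary electrophoresis read-out.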

[4] = molecular target: human Thyroid Receptor alpha (THRa1), THRA (gene 7067) (UniProt P10827); test: ATG_THRa1_TRANS: Attagene TRANS-FACTORIAL HepG2 Assay for human Thyroid Receptor alpha (THRa1) (AID 2283014)
Method in brief: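 Transient HepG2 transfection, NR-Gal4 chimera driving GAL4-UAS reporters; 24 h compound exposure; total RNA, oligo(dT) RT, PCR, fluorescent primer extension, capillary electrophoresis. Upward direction vs DMSO control.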

[5] = molecular target: Cellular tumor antigen p53 (Homo sapiens) (UniProt P04637); test: TOX21_p53_BLA_p2_ratio: Tox21 HCT-116 p53 Agonism Beta-lactamase Assay, Ratio, Phase 2 (AID 2283592)
Method in brief: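 Readout: blue/green (460/530 nm) FRET emission ratio after 2 h CCF4-AM loading at room temperature, excitation 405 nm. HCT116 p53 bla cells, 16 h compound exposure at 37C, 5% CO2; agonist direction fitted against DMSO baseline.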

[6] = molecular target: Cellular tumor antigen p53 (Homo sapiens) (UniProt P04637); test: TOX21_p53_BLA_p3_ratio: Tox21 HCT-116 p53 Agonism Beta-lactamase Assay, Ratio, Phase 3 (AID 2283596)
Method in brief: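 Cells were seeded at 4000/well, rested 5 h at 37C, then dosed with DMSO compound solutions (217-fold dilution) for 16 h. CCF4-AM substrate was loaded for 2 h at room temperature, and the 460/530 nm emission ratio was fitted for gain of signal versus DMSO.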

[7] = TOX21_p53_BLA_p5_viability: Viability Assessment in the Tox21 HCT-116 p53 Agonism Beta-lactamase Assay, Phase 5 (AID 2283600)
Method in brief: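 ATP luminescence (CellTiter-Glo, 30 min, RT) served as the viability read-out, with loss of signal indicating cytotoxicity. Compounds in DMSO were pinned at a 217-fold dilution onto 4000 cells/well and incubated 16 h, 37C.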

[8] = molecular target: Cellular tumor antigen p53 (Homo sapiens) (UniProt P04637); test: TOX21_p53_BLA_p4_ratio: Tox21 HCT-116 p53 Agonism Beta-lactamase Assay, Ratio, Phase 4 (AID 2283601)
Method in brief: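 HCT-116 p53 beta-lactamase reporter cells (4000/well) preincubated 5 h, then compound (217-fold dilution of DMSO stock) for 16 h at 37C. CCF4-AM substrate added 2 h at room temperature; 460/530 nm emission ratio fitted upward versus DMSO.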

[9] = ACEA_ER_AUC_viability: ACEA Biosciences xCELLigence Real-Time Cell Analysis on Estrogen Receptor Agonism for Viability (AID 2283782);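 also: hit means loss of impedance signal meaning reduced cell growth or viability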
Method in brief: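 Read-out: real-time electrical impedance (RT-CES) area under curve, loss of signal taken as reduced viability, normalized to DMSO baseline. T-47D cells, charcoal-stripped serum medium, compounds up to 100 uM final, continuous exposure, 80 h.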

[10] = molecular target: Retinoic acid receptor RXR-alpha (Homo sapiens) (UniProt P19793); test: ATG_RXRa_TRANS: Attagene TRANS-FACTORIAL HepG2 Assay for human Retinoid X Receptor alpha (RXRa) (AID 2283012)
Method in brief: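 Measures exogenous chimeric NR-GAL4 activity in transfected HepG2 liver cells after 24 h of dosing. Induced reporter mRNA was detected by RT-PCR with capillary electrophoresis, and gain of signal was analysed against DMSO.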

[11] = molecular target: human Vitamin D Receptor (VDR), VDR (gene 7421) (UniProt P11473); test: ATG_VDR_TRANS: Attagene TRANS-FACTORIAL HepG2 Assay for human Vitamin D Receptor (VDR) (AID 2283022)
Method in brief: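 RT-PCR/capillary electrophoresis read-out of reporter mRNA induction in transiently transfected HepG2; 24 h dosing; chimeric NR-Gal4 (TRANS format); gain-of-signal fit against DMSO baseline.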

[12] = molecular target: Cellular tumor antigen p53 (Homo sapiens) (UniProt P04637); test: TOX21_p53_BLA_p5_ratio: Tox21 HCT-116 p53 Agonism Beta-lactamase Assay, Ratio, Phase 5 (AID 2283599)
Method in brief: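 HCT-116 p53-bla cells (4000/well) plated 5 h, dosed with compound (217-fold DMSO dilution) for 16 h at 37 C; CCF4-AM substrate 2 h at room temperature. Activity is the 460/530 nm emission ratio (405 nm excitation), fitted in gain-of-signal direction versus DMSO.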

[13] = CCTE_Harrill_HTTr_CellCount_MCF7: CCTE's Cell Proliferation Assessment for the High-Throughput Transcriptomics (HTTr) Platform, Harrill Lab (AID 2284012);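 also: cells exposed to compound for six hours; intended direction is loss of nuclei count meaning fewer cells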
Method in brief: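 Cell count served as viability reporter: loss of Hoechst-stained nuclei, counted by high content imaging, marks decreased growth or survival. Exposure was 6 h in MCF-7 cells across eight concentrations, with DMSO as baseline.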

[14] = CLD_ACTIN_24hr: CellzDirect (CLD) Gene Expression Assay for Baseline Control (Actin) at 24 hours (AID 2283670)
Method in brief: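 This 24 h qNPA (S1 nuclease protection, chemiluminescence) actin transcript readout in cultured human liver primary cells serves as baseline control. Signal is fitted upward relative to 0.2% DMSO; chemicals tested at multiple concentrations across two donor preparations.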

[15] = read-out: HMG-CoA synthase (HMGCS2), HMGCS2 (gene 3158); test: CLD_HMGCS2_24hr: CellzDirect (CLD) Gene Expression Assay for HMG-CoA synthase (HMGCS2) at 24 hours (AID 2283691)
Method in brief: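 qNPA with S1 nuclease digestion and chemiluminescent detection gave HMGCS2 transcript levels, fitted upward against 0.2% DMSO vehicle. Cultured human hepatocytes (two donors) received fresh compound daily and were harvested at 24 h; phase-contrast morphology flagged cytotoxicity.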

[16] = read-out: organic anion transporter (SLCO1B1), SLCO1B1 (gene 10599); test: CLD_SLCO1B1_48hr: CellzDirect (CLD) Gene Expression Assay for organic anion transporter (SLCO1B1) at 48 hours (AID 2283707)
Method in brief: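 SLCO1B1 transcript quantified by qNPA with chemiluminescent readout after 48 h of once-daily chemical exposure. Cultured human primary hepatocytes came from two donors, with 0.2% DMSO vehicle; positive-direction fitting against DMSO, cytotoxicity flagged by morphology.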

[17] = read-out: HMG-CoA synthase (HMGCS2), HMGCS2 (gene 3158); test: CLD_HMGCS2_48hr: CellzDirect (CLD) Gene Expression Assay for HMG-CoA synthase (HMGCS2) at 48 hours (AID 2283711)
Method in brief: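 mRNA induction read by qNPA chemiluminescence, 48 h after dosing. Cultured primary human liver cells (two donor preparations) received fresh compound daily over two days against 0.2% DMSO vehicle; morphology-based cytotoxicity noted alongside.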

[18] = ATG_M_06_TRANS: Attagene TRANS-FACTORIAL HepG2 Assay for M06 Transcription Factor (Internal Marker) (AID 2282983); settings: HepG2 Attagene TRANS M06 internal marker reporter;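 as to AC50: potency for rise in reporter mRNA above DMSO baseline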
Method in brief: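 Read-out: fluorescent reporter cDNA fragments resolved by capillary electrophoresis after RT-PCR and HpaI cut. Source cells were HepG2 carrying transfected multi-reporter GAL4 constructs, dosed 24 h. Increase over DMSO control analysed.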

[19] = read-out: organic anion transporter (SLCO1B1), SLCO1B1 (gene 10599); test: CLD_SLCO1B1_6hr: CellzDirect (CLD) Gene Expression Assay for organic anion transporter (SLCO1B1) at 6 hours (AID 2283668);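 also: active means mRNA induction above DMSO baseline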
Method in brief: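 SLCO1B1 mRNA induction measured 6 h after dosing by quantitative nuclease protection with chemiluminescent read-out, in human primary hepatocyte cultures given chemicals at several concentrations (vehicle 0.2% DMSO). Increase over DMSO baseline fitted; morphology-based cytotoxicity annotated yes/no.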

[20] = read-out: Glyceraldehyde-3-phosphate dehydrogenase (Homo sapiens) (UniProt P04406); test: CLD_GAPDH_48hr: CellzDirect (CLD) Gene Expression Assay for Baseline Control (Glyceraldehyde 3-phosphate dehydrogenase) at 48 hours (AID 2283706)
Method in brief: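 GAPDH baseline-control readout: qNPA chemiluminescent mRNA quantitation in human liver primary cells 48 h after daily dosing on two consecutive days, vehicle 0.2% DMSO; gain of signal fitted against DMSO, cytotoxicity flagged by phase-contrast morphology.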

CCCCC(CC)COC(=O)c1ccc(C(=O)OCC(CC)CCCC)c(C(=O)OCC(CC)CCCC)c1 (stereo unspecified)
AC50 [1]: inconclusive: 27.3 µM and inconclusive: 100 µM
AC50 [2]: inconclusive: 100 µM
AC50 [3]: inconclusive: 5.41 µM
AC50 [4]: inconclusive: 100 µM
AC50 [5]: inconclusive: 12.9 µM
AC50 [6]: inconclusive: 46.1 µM
AC50 [7]: inconclusive: 83.4 µM and inconclusive: 1.8 µM
AC50 [8]: inconclusive: 46.1 µM
AC50 [9]: inconclusive: 50 µM

O=NN(c1ccccc1)c1ccccc1
AC50 [1]: inconclusive: 40.3 µM
AC50 [10]: inconclusive: 100 µM
AC50 [4]: inconclusive: 100 µM
AC50 [6]: inconclusive: 46.1 µM
AC50 [12]: inconclusive: 46.1 µM
outcome [12]: inactive
AC50 [7]: inconclusive: 84.7 µM
AC50 [9]: inconclusive: 50 µM
AC50 [13]: inconclusive: 50 µM

Nc1ccc([N+](=O)[O-])cc1
AC50 [3]: inconclusive: 100 µM
outcome [6]: inactive

O=C(CBr)OCc1ccccc1
outcome [18]: inactive
AC50 [1]: inconclusive: 100 µM
AC50 [11]: inconclusive: 0.0153 µM
AC50 [12]: inconclusive: 46.1 µM
outcome [7]: inactive
AC50 [8]: inconclusive: 46.1 µM

CCCC1COC(Cn2cncn2)(c2ccc(Cl)cc2Cl)O1 (stereo unspecified)
AC50 [18]: inconclusive: 100 µM
AC50 [1]: inconclusive: 12.8 µM
AC50 [3]: inconclusive: 1.79 µM
outcome [3]: inactive
AC50 [10]: inconclusive: 100 µM
outcome [10]: inactive
outcome [4]: inactive
AC50 [11]: inconclusive: 50 µM
outcome [8]: inactive
AC50 [19]: inconclusive: 20 µM
outcome [14]: inactive
AC50 [15]: inconclusive: 34.2 µM
AC50 [20]: inconclusive: 13.8 µM
AC50 [16]: inconclusive: 20 µM
AC50 [17]: inconclusive: 7.52 µM
AC50 [13]: inconclusive: 50 µM
